{"source": "PubChem BioAssay AID1224830 (NIAID, 2016)", "assay": "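Regulators of TLR4 signalling towards TNF-alpha in macrophage-like cells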 (primary screen)", "cells": "human THP-1 monocytic leukaemia cells, TNF dual-luciferase reporter clone, PMA-differentiated to macrophage-like cells", "reagents": "siRNA pool against human genes, 50 nM", "time to read-out": "LPS for 4 h, given about 3 days after siRNA transfection", "treatment": "bacterial LPS (TLR4 ligand), 10 ng/ml", "read-out": "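TNF firefly reporter luminescence divided by renilla, normalised to the plate median, then turned into a robust z-score for each replicate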", "scale": "TNF reporter robust z-score: higher = stronger TNF reporter response to LPS", "hit rule": "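a well is active when its z-score exceeds 2.8 or falls below -1.5; control wells carry no call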", "note": "Here is an unselected part of about 18,000 reagents. About 2,900 of all reagents (16%) were called active. 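Calls are made per well; low scores hint the gene aids the LPS response, high scores that it dampens it.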 Unmarked entries are inactive. Repeated entries: four replicate wells of each siRNA pool."}
{"gene symbol": "WDR83 (GeneID 84292)", "TNF reporter robust z-score": 0.32}
{"gene symbol": "WDR83 (GeneID 84292)", "TNF reporter robust z-score": "3.54 (active)"}
{"gene symbol": "WDR83 (GeneID 84292)", "TNF reporter robust z-score": -0.01}
{"gene symbol": "WDR83 (GeneID 84292)", "TNF reporter robust z-score": "3.87 (active)"}
{"gene symbol": "CEACAM1 (GeneID 634)", "TNF reporter robust z-score": 0.79}
{"gene symbol": "CEACAM1 (GeneID 634)", "TNF reporter robust z-score": 1.53}
{"gene symbol": "CEACAM1 (GeneID 634)", "TNF reporter robust z-score": 0.95}
{"gene symbol": "CEACAM1 (GeneID 634)", "TNF reporter robust z-score": 1.4}
{"gene symbol": "MRPS17 (GeneID 51373)", "TNF reporter robust z-score": 1.36}
{"gene symbol": "MRPS17 (GeneID 51373)", "TNF reporter robust z-score": -0.54}
{"gene symbol": "MRPS17 (GeneID 51373)", "TNF reporter robust z-score": 0.72}
{"gene symbol": "MRPS17 (GeneID 51373)", "TNF reporter robust z-score": 0.23}
{"gene symbol": "MICALL2 (GeneID 79778)", "TNF reporter robust z-score": -0.37}
{"gene symbol": "MICALL2 (GeneID 79778)", "TNF reporter robust z-score": -0.18}
{"gene symbol": "MICALL2 (GeneID 79778)", "TNF reporter robust z-score": -0.89}
{"gene symbol": "MICALL2 (GeneID 79778)", "TNF reporter robust z-score": 0.23}
{"gene symbol": "TCEAL4 (GeneID 79921)", "TNF reporter robust z-score": 0.64}
{"gene symbol": "TCEAL4 (GeneID 79921)", "TNF reporter robust z-score": 0.32}
{"gene symbol": "TCEAL4 (GeneID 79921)", "TNF reporter robust z-score": 0.35}
{"gene symbol": "TCEAL4 (GeneID 79921)", "TNF reporter robust z-score": 0.12}
{"gene symbol": "CNR1 (GeneID 1268)", "TNF reporter robust z-score": 1.16}
{"gene symbol": "CNR1 (GeneID 1268)", "TNF reporter robust z-score": 2.17}
{"gene symbol": "CNR1 (GeneID 1268)", "TNF reporter robust z-score": 0.2}
{"gene symbol": "CNR1 (GeneID 1268)", "TNF reporter robust z-score": 0.84}
{"gene symbol": "NDUFB11 (GeneID 54539)", "TNF reporter robust z-score": 0.99}
{"gene symbol": "NDUFB11 (GeneID 54539)", "TNF reporter robust z-score": 0.09}
{"gene symbol": "NDUFB11 (GeneID 54539)", "TNF reporter robust z-score": -0.38}
{"gene symbol": "NDUFB11 (GeneID 54539)", "TNF reporter robust z-score": 0.08}
{"gene symbol": "GGH (GeneID 8836)", "TNF reporter robust z-score": 1.74}
{"gene symbol": "GGH (GeneID 8836)", "TNF reporter robust z-score": 0.29}
{"gene symbol": "GGH (GeneID 8836)", "TNF reporter robust z-score": 1.79}
{"gene symbol": "GGH (GeneID 8836)", "TNF reporter robust z-score": -1.06}
{"gene symbol": "OR5A1 (GeneID 219982)", "TNF reporter robust z-score": 0.6}
{"gene symbol": "OR5A1 (GeneID 219982)", "TNF reporter robust z-score": 1.13}
{"gene symbol": "OR5A1 (GeneID 219982)", "TNF reporter robust z-score": 0.78}
{"gene symbol": "OR5A1 (GeneID 219982)", "TNF reporter robust z-score": 1.12}
{"gene symbol": "MARCHF2 (GeneID 51257)", "TNF reporter robust z-score": -0.56}
{"gene symbol": "MARCHF2 (GeneID 51257)", "TNF reporter robust z-score": "-1.97 (active)"}
{"gene symbol": "MARCHF2 (GeneID 51257)", "TNF reporter robust z-score": -0.11}
{"gene symbol": "MARCHF2 (GeneID 51257)", "TNF reporter robust z-score": 1.6}
{"gene symbol": "OR4S2 (GeneID 219431)", "TNF reporter robust z-score": -0.17}
{"gene symbol": "OR4S2 (GeneID 219431)", "TNF reporter robust z-score": -0.18}
{"gene symbol": "OR4S2 (GeneID 219431)", "TNF reporter robust z-score": -0.29}
{"gene symbol": "OR4S2 (GeneID 219431)", "TNF reporter robust z-score": 0.19}
{"gene symbol": "LELP1 (GeneID 149018)", "TNF reporter robust z-score": -0.91}
{"gene symbol": "LELP1 (GeneID 149018)", "TNF reporter robust z-score": 0.7}
{"gene symbol": "LELP1 (GeneID 149018)", "TNF reporter robust z-score": -0.15}
{"gene symbol": "PRPS2 (GeneID 5634)", "TNF reporter robust z-score": 0.12}
{"gene symbol": "PRPS2 (GeneID 5634)", "TNF reporter robust z-score": 1.21}
{"gene symbol": "PRPS2 (GeneID 5634)", "TNF reporter robust z-score": 2.47}
{"gene symbol": "PRPS2 (GeneID 5634)", "TNF reporter robust z-score": 2.03}
{"gene symbol": "CT47A8 (GeneID 728049)", "TNF reporter robust z-score": 2.32}
{"gene symbol": "CT47A8 (GeneID 728049)", "TNF reporter robust z-score": 2.47}
{"gene symbol": "CT47A8 (GeneID 728049)", "TNF reporter robust z-score": 0.14}
{"gene symbol": "CT47A8 (GeneID 728049)", "TNF reporter robust z-score": "3.13 (active)"}
{"gene symbol": "NAP1L3 (GeneID 4675)", "TNF reporter robust z-score": 0.53}
{"gene symbol": "NAP1L3 (GeneID 4675)", "TNF reporter robust z-score": 0.42}
{"gene symbol": "NAP1L3 (GeneID 4675)", "TNF reporter robust z-score": 0.24}
{"gene symbol": "NAP1L3 (GeneID 4675)", "TNF reporter robust z-score": 0.57}
{"gene symbol": "TMCO5A (GeneID 145942)", "TNF reporter robust z-score": "-1.98 (active)"}
{"gene symbol": "TMCO5A (GeneID 145942)", "TNF reporter robust z-score": -1.12}
{"gene symbol": "TMCO5A (GeneID 145942)", "TNF reporter robust z-score": -0.93}
{"gene symbol": "TMCO5A (GeneID 145942)", "TNF reporter robust z-score": -1.39}

A portion taken from the entries so far, as a working copy:
{"gene symbol": "CEACAM1 (GeneID 634)", "TNF reporter robust z-score": 0.79}
{"gene symbol": "CEACAM1 (GeneID 634)", "TNF reporter robust z-score": 1.53}
{"gene symbol": "CEACAM1 (GeneID 634)", "TNF reporter robust z-score": 0.95}
{"gene symbol": "CEACAM1 (GeneID 634)", "TNF reporter robust z-score": 1.4}
{"gene symbol": "MRPS17 (GeneID 51373)", "TNF reporter robust z-score": 1.36}
{"gene symbol": "MRPS17 (GeneID 51373)", "TNF reporter robust z-score": -0.54}
